Results are given in words; binding and its absence hold for the method and conditions named. Some entries that bind do so weakly or less than the wild type.
Target: MEF2A (human) (UniProt Q02078)
Test: SPR; Biacore T200, 25 °C; MEF2A immobilised on CM5 chip by amine coupling; class IIa HDACs injected at 40-1.25 nM (2-fold dilutions, in duplicate), 30 uL/min, contact 90 s, dissociation 300 s; HBS-P (10 mM Hepes pH 7.4, 150 mM NaCl, 0.05% P20) for HDAC7 and HDAC9, HBS-P with 1% (v/v) glycerol for HDAC4 and HDAC5; 1:1 kinetic binding model; three independent experiments; both purified

Sequences of proteins named here, by UniProt entry; tags and fusion partners are left off.
UniProt Q9UKV0: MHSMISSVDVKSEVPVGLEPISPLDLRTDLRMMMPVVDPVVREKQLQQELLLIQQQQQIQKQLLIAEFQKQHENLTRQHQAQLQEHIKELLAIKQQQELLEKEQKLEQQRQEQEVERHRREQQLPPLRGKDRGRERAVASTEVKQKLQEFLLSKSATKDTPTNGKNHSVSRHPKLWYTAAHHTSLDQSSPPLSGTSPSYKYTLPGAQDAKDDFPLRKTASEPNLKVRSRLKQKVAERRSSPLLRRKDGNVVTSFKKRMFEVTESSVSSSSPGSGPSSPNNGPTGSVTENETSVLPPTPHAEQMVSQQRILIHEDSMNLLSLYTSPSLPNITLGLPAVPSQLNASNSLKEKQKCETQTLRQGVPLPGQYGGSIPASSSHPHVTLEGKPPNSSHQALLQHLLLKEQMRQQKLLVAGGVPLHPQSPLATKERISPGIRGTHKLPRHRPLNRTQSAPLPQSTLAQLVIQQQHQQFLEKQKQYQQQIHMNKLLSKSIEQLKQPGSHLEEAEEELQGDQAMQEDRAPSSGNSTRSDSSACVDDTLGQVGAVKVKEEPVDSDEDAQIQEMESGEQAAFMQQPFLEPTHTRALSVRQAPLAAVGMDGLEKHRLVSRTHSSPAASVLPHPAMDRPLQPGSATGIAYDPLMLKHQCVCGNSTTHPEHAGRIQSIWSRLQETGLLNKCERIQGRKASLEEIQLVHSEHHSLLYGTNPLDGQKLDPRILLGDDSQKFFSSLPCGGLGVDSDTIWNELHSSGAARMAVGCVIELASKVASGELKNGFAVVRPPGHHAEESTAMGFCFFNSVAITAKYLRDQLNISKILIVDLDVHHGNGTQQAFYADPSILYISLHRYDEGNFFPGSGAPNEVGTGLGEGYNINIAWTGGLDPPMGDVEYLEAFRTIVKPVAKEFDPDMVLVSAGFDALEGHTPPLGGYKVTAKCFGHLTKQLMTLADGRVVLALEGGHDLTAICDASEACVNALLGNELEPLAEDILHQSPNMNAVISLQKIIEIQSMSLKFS

- binding: binds
Substance: HDAC9 (from UniProt Q9UKV0 1-1011) (enzyme)

— PMC12199305
